# PubChem BioAssay AID2685 (National Center for Advancing Translational Sciences (NCATS), 2010)
# This is one part of the list. Shown are side measurements of this screen, not its main read-out; they come without a call. Compounds called inactive in the main read-out are mostly missing here. The note in brackets gives the kind of curve behind each potency; many fits are weak.
# Assay: qHTS Assay for Lipid Storage Modulators in Drosophila S3 Cells;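 on cell number change: cells counted by Cell Tracker Red CMTPX staining in the red channel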
# Settings: BODIPY lipid droplet fluorescence, 18-24 h; for cell number change: measured here: cell count max response, cells fed with added oleic acid
# Procedure, shortened: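 Drosophila S3 cells got compounds at several concentrations plus oleic acid (400 uM solution). Laser-scanning cytometry with 488 nm excitation read lipid droplets at 500-530 nm and cells at 575-640 nm. Percent activity was relative to 20 uM Triacsin C.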
# [1] = measured here: lipid fluorescence (Fed channel) AC50, cells fed with added oleic acid
# [2] = measured here: cell number channel AC50, cells fed with added oleic acid
SMILES,cell number change [%],AC50 [1],AC50 [2]
OCC(CBr)(CBr)CBr,-19.1,"5.17 µM [falling, single point]",–
Cn1c(SCC(=O)N2CCOCC2)nnc1-c1ccc(NC(=O)c2ccccc2F)cc1,16.6,"14.6 µM [rising, single point]",–
Cc1[nH]c2ccccc2c1C(=O)CN1C(=O)C(=O)N(CCC2=CCCCC2)C1=O,-8.72,"6.51 µM [rising, partial curve, poor fit]",–
Nc1ncc(Br)cc1S(=O)(=O)NCCc1ccccc1,-3.63,"6.51 µM [rising, partial curve, poor fit]",–
O=C(C1CC1)N1CCc2cc(Br)cc(S(=O)(=O)N3CCN(c4ccccn4)CC3)c21,–,–,"0.116 µM [falling, full curve, poor fit]"
COCCNC(=O)C(c1ccc(C)o1)N(Cc1ccccc1)C(=O)Cn1nnc2ccccc21 (centres undefined),3.37,–,"0.82 µM [rising, single point]"
COc1ccccc1NC(=O)Cn1nnc(C(=O)Nc2ccccc2)c1N,–,–,"4.11 µM [rising, partial curve]"
CC1CCCN(Cc2nc3c(c(=O)n(C)c(=O)n3C)n2CCc2ccccc2)C1 (centres undefined),92.5,–,"23.1 µM [rising, single point]"
Nc1ccc(C(=O)OCc2nc3ccccc3s2)cc1,23.1,"0.651 µM [rising, partial curve, poor fit]","0.206 µM [rising, single point]"
COc1cc(NC(=O)CCc2ccccc2)nc(OC)n1,-9.45,"6.51 µM [rising, full curve]",–
COc1ccc(N(CC(=O)NCc2ccco2)S(C)(=O)=O)cc1OC,-28.1,"2.06 µM [falling, partial curve, poor fit]","1.3 µM [falling, full curve, poor fit]"
Cc1ccc(/C(O)=C2\C(=O)C(=O)N(C)C2c2ccccc2[N+](=O)[O-])cc1 (centres undefined),-4.74,"7.31 µM [falling, partial curve]",–
C[C@@H](C[C@@H](O)[C@H](O)C(C)(C)O)[C@@H]1CC[C@]2(C)C3=CC[C@H]4C(C)(C)C(=O)CC[C@]4(C)[C@H]3CC[C@@]12C,-43,"9.2 µM [falling, partial curve]","29.1 µM [falling, single point]"
CC(=O)NN1C(=O)/C(=C2/Sc3ccccc3N2C)SC1=S,19.1,"7.31 µM [rising, partial curve, poor fit]",–
Cc1ccc(C2(c3ccc(C)cc3)CC2C(=O)Nc2ccc([N+](=O)[O-])cc2O)cc1 (centres undefined),-39.2,"7.31 µM [falling, partial curve]","20.6 µM [falling, partial curve, poor fit]"
Cc1cc(C)c(C(N)=O)c(Nc2ccc(F)cc2)n1,8.8,"29.1 µM [rising, single point]",–
Cc1ccccc1OCC(=O)Nc1cccc(N(C)S(C)(=O)=O)c1,14.5,"0.326 µM [rising, full curve]","0.259 µM [rising, partial curve, poor fit]"
CCOC(=O)c1[nH]c2ccccc2c1NC(=O)CC(C)(C)C,-21.8,"2.31 µM [falling, partial curve]",–
O=C(NC1CCCc2c1cnn2-c1ccc(F)cc1F)c1ccccc1N1CCOCC1 (centres undefined),-26.7,"29.1 µM [falling, single point]",–

# Four of these compounds in another layout:
SMILES	cell number change [%]	AC50 [1]	AC50 [2]
COc1ccccc1NC(=O)Cn1nnc(C(=O)Nc2ccccc2)c1N	–	–	4.11 µM [rising, partial curve]
CC1CCCN(Cc2nc3c(c(=O)n(C)c(=O)n3C)n2CCc2ccccc2)C1 (centres undefined)	92.5	–	23.1 µM [rising, single point]
Nc1ccc(C(=O)OCc2nc3ccccc3s2)cc1	23.1	0.651 µM [rising, partial curve, poor fit]	0.206 µM [rising, single point]
COc1cc(NC(=O)CCc2ccccc2)nc(OC)n1	-9.45	6.51 µM [rising, full curve]	–

# The list continues:

SMILES,cell number change [%],AC50 [1],AC50 [2]
COc1ccccc1-c1c(C(F)(F)F)oc2cc(OC(=O)c3cccc([N+](=O)[O-])c3C)ccc2c1=O,-20,"25.9 µM [falling, single point]",–
CCOc1ccc2nc(NC(=S)NCc3ccccc3)sc2c1,-7.44,"0.731 µM [rising, single point]",–
Cn1cc(CCC(=O)NC2CC2)c2ccccc21,37.6,–,"32.6 µM [rising, single point]"
CC(SCc1cc(=O)n2c([nH]c3ccccc32)c1C#N)C(=O)O (centres undefined),8.1,"0.058 µM [rising, full curve, poor fit]",–
O=C(CN(C(=O)CSc1nc2ccccc2o1)c1ccccc1)NC1CCCCC1,23,–,"4.61 µM [rising, partial curve, poor fit]"
Cc1ccc(/C(=N/Nc2ncnc3ccccc23)C(=O)O)cc1,33.8,–,"29.1 µM [rising, single point]"
CCOc1ccc(NC(=O)CCC(=O)O)cc1,7.73,"0.651 µM [falling, full curve, poor fit]",–
CCO[C@H]1OC(C(=O)NCc2ccccc2)=C[C@@H](c2ccc(C(F)(F)F)cc2)[C@@H]1CCCO,-0.949,–,–
NC(=O)N/N=C/c1ccc(-c2cccc(C(F)(F)F)c2)o1,36.8,"29.1 µM [rising, single point]","23.1 µM [rising, single point]"
COC(=O)CCCN=C1SCCN1Cc1ccccc1,5.26,"35.5 µM [rising, single point]","4.11 µM [rising, partial curve, poor fit]"
COc1cc2c(cc1OC)CN(C(=O)/C=C/c1cccc([N+](=O)[O-])c1)CC2,2.94,"0.206 µM [rising, single point]",–
O=C(Nc1ccnn1C1CCN(C2CCOCC2)CC1)c1cccc(F)c1,-5.9,"4.11 µM [rising, full curve]",–
COc1ccc(NC(=O)CCc2ccccc2)cc1S(=O)(=O)N1CCCCC1,1.74,"0.731 µM [falling, single point]",–
O=C(Cn1c(=O)n(CC(=O)N2CCCCC2)c(=O)c2sccc21)NCc1ccccc1,-8.25,"2.31 µM [falling, single point]",–
COc1ccc(CN(Cc2cccnc2)S(=O)(=O)c2ccc(-n3cnnn3)c(OC)c2)cc1,7.26,"0.411 µM [rising, partial curve, poor fit]",–
COC(=O)c1[nH]c2ccc(Br)cc2c1NC(=O)CN1CCN(C2CCCCC2)CC1,-25.3,"29.1 µM [falling, single point]",–
O=[N+]([O-])c1cccc(/C=N/n2c(-c3cccnc3)n[nH]c2=S)c1,-30.4,–,"29.1 µM [falling, single point]"
Cc1cc(-c2ccccc2)nc(Oc2ccc(C(C)(C)C)cc2)c1S(C)(=O)=O,-33.9,"32.6 µM [falling, single point]","32.6 µM [falling, single point]"
Cc1cc(C(=O)N2CCN(S(C)(=O)=O)CC2)cs1,-40.1,"0.00461 µM [falling, full curve, poor fit]","0.0092 µM [falling, full curve]"

SMILES,cell number change [%],AC50 [1],AC50 [2]
Cc1ccc(NC(=O)c2cnn(C)c2)cc1[N+](=O)[O-],32.4,"8.2 µM [rising, partial curve]","5.8 µM [rising, partial curve]"
CCCC(=O)Nc1ccc(C(=O)COC(=O)c2c(C)noc2C)cc1,23.7,–,–
O=C(COc1ncnc2ccc(Br)cc12)NC1CCCC1,-31.5,"29.1 µM [falling, single point]","29.1 µM [falling, single point]"
COc1ccc([C@H]2CC(=O)C=C(c3ccc(C)c([N+](=O)[O-])c3)C2)cc1,11.1,"0.116 µM [falling, full curve, poor fit]",–
CCOc1ccc(NC(=O)COC(=O)C23CC4CC(CC(C4)C2)C3)c([N+](=O)[O-])c1,-25.3,–,–
COc1cc(CCC(=O)OCC(=O)Nc2ccc(C)cc2Cl)cc(OC)c1OC,–,"1.84 µM [rising, partial curve, poor fit]",–
Cc1cccc(NS(=O)(=O)c2coc(C(N)=O)c2)c1C,9.51,"18.4 µM [rising, partial curve]",–
Cc1ccc(S(=O)(=O)N2CCN(C(=O)c3ccc(OCc4c(C)noc4C)cc3)CC2)cc1,9.14,–,–
CC(=O)C1=C(C)NC(=O)NC1c1ccccc1 (centres undefined),4.44,"0.0058 µM [rising, full curve, poor fit]",–
Cc1ccccc1NC(=O)Cc1nnc(SCC(=O)NC2CCCC2)n1C,2.63,"0.1 µM [rising, full curve, poor fit]",–
CCc1nnc(NC(=O)c2cccc(OC)c2)s1,–,"0.58 µM [falling, single point]",–
O=C(Nc1ccnn1C1CCN(Cc2ccc(C#CCCO)cc2)CC1)c1cccc(F)c1,-18.2,–,–
Oc1csc(Cc2nc(-c3ccc4ccccc4c3)cs2)n1,8.92,–,–
O=C(NCCN1CCOCC1)c1ccc(=O)n(Cc2ccc(Cl)cc2)c1,-34.8,–,"18.4 µM [falling, single point]"
Cc1ccc(N2CCN(S(=O)(=O)c3ccc4c(c3)oc(=O)n4C)CC2C)cc1 (centres undefined),-12.5,"29.1 µM [falling, single point]",–
CCOC(=O)N1CCN(C(=O)CSc2nc3c([nH]c4ccccc43)c(=O)n2CCOC)CC1,-25.2,–,"0.92 µM [falling, partial curve]"
COc1ccc(CCN2CC(C(=O)N(C)C3CCOCC3)CCC2=O)cc1 (centres undefined),–,"16.4 µM [rising, single point]",–
CNC(=O)COC(=O)c1ccccc1Oc1ccccc1,30.2,–,"11.6 µM [rising, single point]"
CCN(CC)c1ccc2c(c1)oc(=O)c1c(Cl)cc(=O)oc12,–,"0.259 µM [rising, partial curve, poor fit]","1.46 µM [rising, partial curve]"
